Measured values published in paper PMC4771823, “How the oxygen tolerance of a [NiFe]-hydrogenase depends on quaternary structure” (Journal of Biological Inorganic Chemistry, 2016).
Results are given in words; binding and its absence hold for the method and conditions named. Binding calls can cover weak binding; strength is not graded here.

Assays:
[1] = target: T1, Hydrogenase-1 small (β) subunit (E. coli) (UniProt P69739); assay: SEC; freshly isolated Hyd-1 incubated 2 h with ca. 1 % digitonin, Superdex 200 HR 10/30, running buffer with 0.007 % digitonin, pH 7.0, 50 mM sodium phosphate, 0.10 M NaCl, 4 °C, 0.15 mL/min; full calibration; fractions analysed by SDS-PAGE; (αβ)2 dimer to (αβ) monomers; both purified
T1 sequence: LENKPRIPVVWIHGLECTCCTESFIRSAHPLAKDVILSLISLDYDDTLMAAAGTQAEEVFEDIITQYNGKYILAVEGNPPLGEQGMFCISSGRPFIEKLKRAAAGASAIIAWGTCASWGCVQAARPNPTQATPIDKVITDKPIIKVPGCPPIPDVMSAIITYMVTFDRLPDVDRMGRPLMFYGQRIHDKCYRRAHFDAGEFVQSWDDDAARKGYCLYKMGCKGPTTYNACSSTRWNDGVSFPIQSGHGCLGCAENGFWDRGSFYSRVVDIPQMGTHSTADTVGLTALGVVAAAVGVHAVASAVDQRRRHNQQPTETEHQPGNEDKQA

[2] = target: T1, Hydrogenase-1 small (β) subunit (E. coli); assay: SEC; Superdex 200 HR 10/30, running buffer with 0.02 % Triton X-100, pH 7.0, 50 mM sodium phosphate, 0.10 M NaCl, 4 °C, 0.15 mL/min; column calibrated with protein standards; dimer peak run again after 5 days at 4 °C; fractions analysed by SDS-PAGE; (αβ)2 dimer to (αβ) monomers; both purified

binding [1]: binds | binding [2]: binds
Substance: Hydrogenase-1 large (α) subunit (from UniProt P0ACD8)
